Test results published in article PMC7737607.
Results are given in words; binding and its absence hold for the method and conditions named. Binding seen in cells or lysates may run through a third protein. Some entries that bind do so weakly or less than the wild type. One block for each binder: values may come before it.

Sequences of proteins named here, by UniProt entry; tags and fusion partners are left off. Residues count along the entry.
UniProt Q15691: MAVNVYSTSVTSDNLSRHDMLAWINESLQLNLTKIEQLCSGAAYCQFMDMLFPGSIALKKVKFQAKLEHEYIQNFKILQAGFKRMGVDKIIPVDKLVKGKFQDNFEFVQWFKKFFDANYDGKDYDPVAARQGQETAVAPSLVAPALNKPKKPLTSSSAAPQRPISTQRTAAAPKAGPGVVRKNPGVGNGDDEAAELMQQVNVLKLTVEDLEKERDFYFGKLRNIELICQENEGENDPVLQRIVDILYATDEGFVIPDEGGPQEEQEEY
UniProt Q9UJC3: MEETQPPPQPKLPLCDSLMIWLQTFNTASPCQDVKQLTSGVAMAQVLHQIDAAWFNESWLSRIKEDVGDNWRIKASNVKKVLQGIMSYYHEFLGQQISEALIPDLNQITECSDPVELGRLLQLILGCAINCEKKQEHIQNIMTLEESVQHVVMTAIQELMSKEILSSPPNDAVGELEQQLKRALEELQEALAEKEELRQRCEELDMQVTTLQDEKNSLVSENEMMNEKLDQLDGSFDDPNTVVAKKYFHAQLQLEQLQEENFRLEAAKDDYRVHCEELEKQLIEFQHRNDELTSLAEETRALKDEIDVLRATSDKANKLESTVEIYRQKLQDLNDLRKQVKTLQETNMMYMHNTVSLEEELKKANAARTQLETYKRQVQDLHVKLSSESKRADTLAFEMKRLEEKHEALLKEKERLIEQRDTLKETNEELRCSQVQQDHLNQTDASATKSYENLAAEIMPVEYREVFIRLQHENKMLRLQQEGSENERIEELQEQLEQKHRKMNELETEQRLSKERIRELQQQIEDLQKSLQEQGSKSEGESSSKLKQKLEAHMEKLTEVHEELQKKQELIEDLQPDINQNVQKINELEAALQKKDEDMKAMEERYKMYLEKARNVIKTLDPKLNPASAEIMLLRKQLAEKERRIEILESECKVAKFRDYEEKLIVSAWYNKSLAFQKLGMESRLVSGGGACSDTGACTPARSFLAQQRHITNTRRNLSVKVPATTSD
UniProt Q13586, residues 23-685: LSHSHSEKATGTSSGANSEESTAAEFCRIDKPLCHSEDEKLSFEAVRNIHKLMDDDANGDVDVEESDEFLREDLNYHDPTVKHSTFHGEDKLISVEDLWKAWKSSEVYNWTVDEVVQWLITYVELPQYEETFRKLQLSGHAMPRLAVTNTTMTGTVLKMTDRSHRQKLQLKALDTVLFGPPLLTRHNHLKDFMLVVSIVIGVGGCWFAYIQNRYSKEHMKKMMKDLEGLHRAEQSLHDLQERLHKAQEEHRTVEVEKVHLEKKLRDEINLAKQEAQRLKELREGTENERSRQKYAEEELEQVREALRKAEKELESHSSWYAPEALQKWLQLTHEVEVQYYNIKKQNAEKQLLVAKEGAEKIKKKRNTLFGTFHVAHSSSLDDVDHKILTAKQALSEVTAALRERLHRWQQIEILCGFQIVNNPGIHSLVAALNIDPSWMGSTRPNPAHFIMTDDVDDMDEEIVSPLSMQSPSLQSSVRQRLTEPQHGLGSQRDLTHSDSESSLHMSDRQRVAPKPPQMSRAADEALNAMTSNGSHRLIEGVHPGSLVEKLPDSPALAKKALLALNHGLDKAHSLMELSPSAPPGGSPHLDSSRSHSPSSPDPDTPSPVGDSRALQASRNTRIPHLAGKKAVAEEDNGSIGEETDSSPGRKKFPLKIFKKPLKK

Experiments:
[1] = molecular target: MT plus end-binding protein 1 (EB1) (human (endogenous in primary umbilical vein ECs)) (UniProt Q15691); assay: co-IP; endogenous EB1 immunoprecipitated (mouse anti-EB1) from lysates of shCTL or shSTIM1 ECs; 1 mg lysate, 25 mM Tris-HCl pH 7.2, 150 mM NaCl, 1% NP-40, 4°C; Western blot
[2] = molecular target: HOOK1 (human (endogenous in primary umbilical vein ECs)) (UniProt Q9UJC3); assay: co-IP; endogenous HOOK1 immunoprecipitated (rabbit antibody) from lysates of wild-type ECs, untreated or treated with AZ82; 25 mM Tris-HCl pH 7.2, 150 mM NaCl, 1% NP-40, 4°C; Western blot
[3] = molecular target: stromal interaction molecule 1 (STIM1) (human (endogenous in primary umbilical vein ECs)) (UniProt Q13586); assay: co-IP; endogenous STIM1 immunoprecipitated (rabbit antibody) from lysates of wild-type ECs; 25 mM Tris-HCl pH 7.2, 150 mM NaCl, 1% NP-40, 4°C; Western blot
[4] = molecular target: T1, kinesin-14 KIFC1 (human (endogenous in primary umbilical vein ECs)) (UniProt Q9BW19); assay: co-IP; endogenous KIFC1 immunoprecipitated (mouse antibody) from lysates of wild-type ECs; 25 mM Tris-HCl pH 7.2, 150 mM NaCl, 1% NP-40, 4°C; Western blot
T1 sequence: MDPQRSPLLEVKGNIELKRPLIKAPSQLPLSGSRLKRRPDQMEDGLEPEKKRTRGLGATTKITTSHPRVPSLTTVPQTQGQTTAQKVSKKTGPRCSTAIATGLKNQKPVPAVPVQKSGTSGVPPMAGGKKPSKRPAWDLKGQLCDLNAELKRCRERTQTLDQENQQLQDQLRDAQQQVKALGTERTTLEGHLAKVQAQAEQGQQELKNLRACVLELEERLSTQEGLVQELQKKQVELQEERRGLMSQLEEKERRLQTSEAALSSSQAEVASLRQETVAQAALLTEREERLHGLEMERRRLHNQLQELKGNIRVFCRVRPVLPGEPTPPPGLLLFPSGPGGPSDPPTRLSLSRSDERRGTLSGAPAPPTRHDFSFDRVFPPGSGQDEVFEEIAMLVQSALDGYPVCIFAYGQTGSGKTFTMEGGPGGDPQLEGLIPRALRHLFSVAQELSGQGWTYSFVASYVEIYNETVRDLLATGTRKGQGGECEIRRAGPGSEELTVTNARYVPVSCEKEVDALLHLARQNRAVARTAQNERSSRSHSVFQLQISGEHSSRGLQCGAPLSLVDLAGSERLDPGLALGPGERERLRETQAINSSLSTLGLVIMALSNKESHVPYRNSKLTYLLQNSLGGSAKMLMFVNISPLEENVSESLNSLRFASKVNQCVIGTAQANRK

binding [1]: binds
binding [2]: no binding
binding [3]: no binding
B1: kinesin-14 KIFC1 (protein, UniProt Q9BW19 1-673)
chain: T1 sequence

binding [4]: binds
B2: HOOK3 (protein, UniProt Q86VS8 1-718)
chain: MFSVESLERAELCESLLTWIQTFNVDAPCQTVEDLTNGVVMAQVLQKIDPAYFDENWLNRIKTEVGDNWRLKISNLKKILKGILDYNHEILGQQINDFTLPDVNLIGEHSDAAELGRMLQLILGCAVNCEQKQEYIQAIMMMEESVQHVVMTAIQELMSKESPVSAGNDAYVDLDRQLKKTTEELNEALSAKEEIAQRCHELDMQVAALQEEKSSLLAENQVLMERLNQSDSIEDPNSPAGRRHLQLQTQLEQLQEETFRLEAAKDDYRIRCEELEKEISELRQQNDELTTLADEAQSLKDEIDVLRHSSDKVSKLEGQVESYKKKLEDLGDLRRQVKLLEEKNTMYMQNTVSLEEELRKANAARSQLETYKRQVVELQNRLSEESKKADKLDFEYKRLKEKVDSLQKEKDRLRTERDSLKETIEELRCVQAQEGQLTTQGLMPLGSQESSDSLAAEIVTPEIREKLIRLQHENKMLKLNQEGSDNEKIALLQSLLDDANLRKNELETENRLVNQRLLEVQSQVEELQKSLQDQGSKAEDSVLLKKKLEEHLEKLHEANNELQKKRAIIEDLEPRFNNSSLKIEELQEALRKKEEEMKQMEERYKKYLEKAKSVIRTLDPKQNQGAAPEIQALKNQLQERDRLFHSLEKEYEKTKSQREMEEKYIVSAWYNMGMTLHKKAAEDRLASTGSGQSFLARQRQATSSRRSYPGHVQPATAR
